Where a sequence shows no end group, the ends are not given.

The first series is described as follows: general procedure: Fmoc solid-phase peptide synthesis; Fmoc-His(Trt)-Wang resin, H-His(Trt)-2Cl-Trt resin, Fmoc-Asp(OtBu)-Wang resin, Fmoc-Ile-Wang resin, Fmoc-Ser(tBu)-Wang r. The following applies: whole synthesis.
For the sequence TLQRSSLWCLCSNH, the “crude purity (method not given)” value was determined as 60% and the “final purity (method not given)” value worked out at 99%.

DGYMFLKAESKIMFAT: the “crude purity (method not given)” value came out at 39% and the “final purity (method not given)” value worked out at 91.6%.

For LHFCRSSIMKPKRDGYMFLKAESKI, the “crude purity (method not given)” value amounted to 37%.

Regarding DLHFCRSSIMKPKRDGYMFLKAESK, the “final purity (method not given)” value was 88%.

Turning to FLKAESKIMFATLQR, the “crude purity (method not given)” value was 35% and the “final purity (method not given)” value was found to be 84%.

On to YMFLKAESKI, for which the “final purity (method not given)” value is recorded as 85%.

As to KPKRDGYMFLKAESKI, the “crude purity (method not given)” value is on record as 69% and the “final purity (method not given)” value is 98.4%.

KPKRDGYMFLKAESKIMFATLQRSSLWCL: the “crude purity (method not given)” value was 42% and the “final purity (method not given)” value was determined as 87%.

As to KKKKKIMFATLQRSSLWCLCSNH, the “crude purity (method not given)” value is recorded as 49% and the “final purity (method not given)” value came out at 75.7%.

For the sequence ESKIMFATLQRSSLWC, the “crude purity (method not given)” value is 41% and the “final purity (method not given)” value worked out at 91.0%.

FLKAESKIMFATLQRS: the “crude purity (method not given)” value was 62% and the “final purity (method not given)” value was found to be 95.0%.

As for KKKKMFATLQRSSLWCLCSNH, the “crude purity (method not given)” value was determined as 39% and the “final purity (method not given)” value is reported as 92.7%.

As for PGRPLQTHVLPEPHLALQPLQPHADHA, the “final purity (method not given)” value is on record as 95%.

With KKKKYMFLKAESKIMFATLQRSS, the “crude purity (method not given)” value is given as 45%.

On to KPKRDGYMFLKAESKIMFATLQR, for which the “crude purity (method not given)” value is recorded as 53% and the “final purity (method not given)” value was 92.6%.

In the case of KKKKKPKRDGYMFLKAESKIMFAT, the “crude purity (method not given)” value was 57% and the “final purity (method not given)” value is recorded as 85.7%.

On to YMFLKAESKIMFATLQRSS, for which the “crude purity (method not given)” value came out at 38% and the “final purity (method not given)” value is 95.9%.

Consider MFATLQRSSLWCLCSNH, for which the “crude purity (method not given)” value was 47% and the “final purity (method not given)” value is 98.7%.

For the sequence FLKAESKIMFATLQRSSLWCL, the “crude purity (method not given)” value was determined as 66% and the “final purity (method not given)” value was found to be 86%.

As to YMFLKAESKIMFATLQRSSLWCL, the “crude purity (method not given)” value is recorded as 37%.

On to GPPARVPAVPFDLHFCRSSIMKPKRD, for which the “crude purity (method not given)” value is 51% and the “final purity (method not given)” value is 99.5%.

As for PPARVPAVPFDLHFCRSSIMKPKRD, the “final purity (method not given)” value is 93%.

On to DLHFCRSSIMKPKRDGYMFLKAESKIMFATLQRSSLWCL, for which the “crude purity (method not given)” value was 40%.

As for MFATLQRSSLWCLC, the “crude purity (method not given)” value is 57% and the “final purity (method not given)” value is on record as 90%.

Regarding ESKIMFATLQRSSL, the “crude purity (method not given)” value came to 75% and the “final purity (method not given)” value was determined as 97%.

As for KPKRDGYMFLKAESKIMFATLQRSSLWCLCSNH, the “crude purity (method not given)” value was found to be 37%.

With KKKKKAESKIMFATLQRSSLWCL, the “crude purity (method not given)” value is on record as 28% and the “final purity (method not given)” value was 82.3%.

As to KPKRDGYMFLKAESKIMFAT, the “crude purity (method not given)” value is recorded as 41% and the “final purity (method not given)” value was 97.6%.

As for APAIQPVLWTTPPLQHGHRHGLEPCS, the “final purity (method not given)” value amounted to 90%.

With KAESKIMFATLQRSSLWCLCSNH, the “final purity (method not given)” value was determined as 100%.

On to KAESKIMFATLQRSSLWCL, for which the “crude purity (method not given)” value is on record as 32% and the “final purity (method not given)” value turned out to be 96.6%.

As to KIMFATLQRSSLWCLCSNH, the “crude purity (method not given)” value worked out at 31% and the “final purity (method not given)” value amounted to 68.0%.

Regarding EPHLALQPLQPHADHAHADAPAIQPV, the “final purity (method not given)” value was 92%.

As for HADHAHADAPAIQPVLWTTPPLQH, the “final purity (method not given)” value was 94%.

The series is the same for the next values; noted with them: whole synthesis, scale 5 umol.
For KPKRDGYMFL, the “final purity (method not given)” value stood at 71%.

Regarding VLPEPHLAL, the “final purity (method not given)” value is given as 100%.

For the sequence KIMFATLQR, the “final purity (method not given)” value was 71%.

In the case of GPPARVPAV, the “final purity (method not given)” value stood at 81%.

On to YMFLKAESKI, for which the “final purity (method not given)” value turned out to be 100%.

VLWTTPPLQH: the “final purity (method not given)” value was 85%.

With EPHLALQPL, the “final purity (method not given)” value turned out to be 81%.

Consider KPKRDGYMF, for which the “final purity (method not given)” value came out at 73%.

In the case of MFLKAESKI, the “final purity (method not given)” value was 86%.

Turning to TLQRSSLWCL, the “final purity (method not given)” value amounted to 98%.

The same series, now with this note: whole synthesis; run 1.
Consider KPKRDGYMFLKAESKIMFATLQRSSLWCLCSNH, for which the “final purity (method not given)” value amounted to 96%.

The series is the same for the next values; noted with them: whole synthesis; run 2.
For the sequence KPKRDGYMFLKAESKIMFATLQRSSLWCLCSNH, the “final purity (method not given)” value was 95% purity.
